Measured values published in patent US20080318857A1.
These are yes or no findings as the source states them, for the method shown. Binding seen in cells or lysates may run through a third protein. Some results given as binding are weak or reduced against the parent protein; the word gives no strength.

Protein sequences, listed by entry. Tags and fused reporters are not part of them. Lines headed by an entry give the natural chain unless they say otherwise; changes in a name come on top. Residues count along the entry.
UniProt P35968, residues 20-1356: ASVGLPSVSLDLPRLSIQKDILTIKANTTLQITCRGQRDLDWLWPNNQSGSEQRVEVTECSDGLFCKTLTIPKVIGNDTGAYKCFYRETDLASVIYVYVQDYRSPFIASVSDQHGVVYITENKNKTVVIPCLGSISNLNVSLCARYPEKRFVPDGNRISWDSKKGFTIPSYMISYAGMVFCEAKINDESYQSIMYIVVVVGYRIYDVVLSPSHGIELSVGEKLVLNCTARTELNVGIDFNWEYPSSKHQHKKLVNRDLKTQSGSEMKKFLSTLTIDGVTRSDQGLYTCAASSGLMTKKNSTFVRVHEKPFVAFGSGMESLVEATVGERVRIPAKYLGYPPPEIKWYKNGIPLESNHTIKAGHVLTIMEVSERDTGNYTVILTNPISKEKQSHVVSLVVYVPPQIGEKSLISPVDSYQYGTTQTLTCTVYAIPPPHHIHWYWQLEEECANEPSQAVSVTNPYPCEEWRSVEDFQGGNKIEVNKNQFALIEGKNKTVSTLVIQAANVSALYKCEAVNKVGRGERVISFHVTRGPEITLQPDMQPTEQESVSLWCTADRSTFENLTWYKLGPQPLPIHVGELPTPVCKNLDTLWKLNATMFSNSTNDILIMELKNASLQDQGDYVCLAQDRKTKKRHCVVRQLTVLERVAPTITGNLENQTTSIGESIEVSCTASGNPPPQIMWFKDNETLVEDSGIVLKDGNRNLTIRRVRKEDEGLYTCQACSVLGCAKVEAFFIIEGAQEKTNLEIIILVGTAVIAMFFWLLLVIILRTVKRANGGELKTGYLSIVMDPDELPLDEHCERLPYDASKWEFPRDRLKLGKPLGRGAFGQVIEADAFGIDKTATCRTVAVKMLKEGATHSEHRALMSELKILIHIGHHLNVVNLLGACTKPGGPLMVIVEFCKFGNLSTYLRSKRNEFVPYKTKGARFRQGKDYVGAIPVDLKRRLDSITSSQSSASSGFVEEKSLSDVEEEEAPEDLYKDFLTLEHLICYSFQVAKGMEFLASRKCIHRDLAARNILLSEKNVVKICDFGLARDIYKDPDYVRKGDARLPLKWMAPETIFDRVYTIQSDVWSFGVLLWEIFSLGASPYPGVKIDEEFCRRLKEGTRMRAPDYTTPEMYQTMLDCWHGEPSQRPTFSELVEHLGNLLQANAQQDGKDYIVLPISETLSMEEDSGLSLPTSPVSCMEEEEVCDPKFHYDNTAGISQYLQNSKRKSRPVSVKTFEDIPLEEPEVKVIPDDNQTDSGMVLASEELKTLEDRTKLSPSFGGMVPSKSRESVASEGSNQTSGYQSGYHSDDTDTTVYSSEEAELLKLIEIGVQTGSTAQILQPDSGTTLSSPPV
UniProt P17948: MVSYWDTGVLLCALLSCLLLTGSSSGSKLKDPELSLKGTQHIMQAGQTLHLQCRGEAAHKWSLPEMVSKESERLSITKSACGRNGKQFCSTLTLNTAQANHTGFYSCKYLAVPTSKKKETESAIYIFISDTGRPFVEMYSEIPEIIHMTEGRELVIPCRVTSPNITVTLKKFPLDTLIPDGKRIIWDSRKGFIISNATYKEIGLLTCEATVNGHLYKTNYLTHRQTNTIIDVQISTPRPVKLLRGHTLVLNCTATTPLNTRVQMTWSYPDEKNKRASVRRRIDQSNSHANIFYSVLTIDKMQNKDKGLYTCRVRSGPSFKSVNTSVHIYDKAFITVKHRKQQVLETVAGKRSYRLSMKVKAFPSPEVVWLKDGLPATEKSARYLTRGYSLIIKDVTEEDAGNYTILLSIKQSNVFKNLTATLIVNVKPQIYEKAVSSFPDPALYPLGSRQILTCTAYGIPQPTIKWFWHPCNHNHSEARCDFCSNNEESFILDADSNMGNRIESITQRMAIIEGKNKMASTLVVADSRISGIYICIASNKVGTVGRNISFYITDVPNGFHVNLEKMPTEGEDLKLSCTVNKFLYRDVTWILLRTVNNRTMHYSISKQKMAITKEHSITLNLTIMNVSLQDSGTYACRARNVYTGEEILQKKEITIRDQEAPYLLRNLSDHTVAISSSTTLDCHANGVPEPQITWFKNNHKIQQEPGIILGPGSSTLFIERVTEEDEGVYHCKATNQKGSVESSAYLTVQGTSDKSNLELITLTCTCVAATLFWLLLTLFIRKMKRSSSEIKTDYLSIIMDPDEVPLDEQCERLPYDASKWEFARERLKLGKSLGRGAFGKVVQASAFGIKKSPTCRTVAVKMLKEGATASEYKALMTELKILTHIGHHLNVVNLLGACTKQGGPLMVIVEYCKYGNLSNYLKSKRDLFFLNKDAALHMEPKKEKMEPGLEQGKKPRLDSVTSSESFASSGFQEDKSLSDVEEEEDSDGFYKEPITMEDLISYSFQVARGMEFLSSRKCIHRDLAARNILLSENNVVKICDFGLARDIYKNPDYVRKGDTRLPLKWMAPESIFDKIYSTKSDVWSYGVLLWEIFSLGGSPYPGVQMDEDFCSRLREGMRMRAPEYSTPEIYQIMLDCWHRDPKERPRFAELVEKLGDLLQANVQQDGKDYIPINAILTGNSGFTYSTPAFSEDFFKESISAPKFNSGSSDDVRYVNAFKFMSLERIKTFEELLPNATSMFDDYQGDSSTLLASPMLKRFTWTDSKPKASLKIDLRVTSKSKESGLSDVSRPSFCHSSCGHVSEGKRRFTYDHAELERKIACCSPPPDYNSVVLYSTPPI

Tests used:
[1] = molecular target: VEGFR-2 (KDR), endogenous in A375 human malignant melanoma cells (human) (UniProt P35968); experiment: co-immunoprecipitation: anti-FLT IP of transfected hypoxic A375 cell fraction, Western blot with anti-VEGFR-2
[2] = molecular target: VEGFR-2 (KDR), endogenous in A375 human malignant melanoma cells (human) (UniProt P35968); experiment: heading of Example 5 (co-immunoprecipitation in A375 cells)

binding [1]: binds
binding [2]: binds
Substance: Flt24K intraceptor (Flt24-KDEL; domains 2, 3 and 4 of VEGFR-1 (Flt) fused at the C-terminus to the ER retention signal KDEL) (from UniProt P17948 130-434) (receptor)
